From PubChem BioAssay AID504834 (National Center for Advancing Translational Sciences (NCATS), 2011)
Out of some 320,000 compounds screened, about 22,000 (6.9%) were called active. Inconclusive results, whose numbers are uncertain, are shown with a selection of clear calls. Calls follow the shape of the dose curve; as a rule, active = well fitted inhibition curve with a large enough effect; inconclusive = small, poorly fitted or top-dose-only effect, or another doubt; inactive = no such curve, though single readings can be large or run the other way. Potencies of inconclusive entries are doubtful fits and often do not repeat.
% is scaled to controls: 0 for no effect and ±100 for the full control effect; potency is read from the fitted curve at half-maximal effect.

Assay: Primary qHTS for delayed death inhibitors of the malarial parasite plastid, 96 hour incubation
Settings: P. falciparum luciferase reporter growth; series mostly up to 28.7 µM
In short: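 Compounds incubated with erythrocytes infected by luciferase-expressing P. falciparum (2% hematocrit, 0.05% parasitemia final) for 96 hours, 37 C in 5% CO2. Growth inhibition scored as decreased luciferase luminescence.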
For `CC(=O)NC1CC2CCCC(C1)N2CC(=O)NCc1ccc(F)cc1` (stereo not given), the Potency was inconclusive: 18.5 µM [inhibitor, single point].
With `CCCC(=O)N1CCN(c2ccc(NC(=O)c3ccc4c(c3)OCCO4)cc2)CC1` the Potency was inconclusive: 8.28 µM [inhibitor, partial curve, poor fit].
For `O=C(CNc1cccc([N+](=O)[O-])c1)N1CCN(S(=O)(=O)c2ccc(Cl)cc2)CC1`, the Potency was inconclusive: 18.5 µM [inhibitor, single point].
For `CCOC(=O)N1CCN(Cc2ccc(F)cc2F)CC1`, the Potency was inconclusive: 0.415 µM [inhibitor, full curve, poor fit].
In the case of `CC1CCN(C(=O)NC(=O)c2ccccc2)CC1`, the Potency is reported as inconclusive: 18.5 µM [inhibitor, single point].
In the case of `Cn1nc(C(C)(C)C)cc1C(=O)NCc1cc(F)cc2c1OCOC2`, the Potency is reported as inconclusive: 18.5 µM [inhibitor, single point].
With `COc1ccc(C(=O)Nc2ccnn2C2CCN(CC3CC=CCC3)CC2)cc1` (stereo not given) the Potency was inconclusive: 13.1 µM [inhibitor, single point].
With `CCN(c1ccccc1)S(=O)(=O)c1ccc(OC)c(NC(=O)C2=NN(c3ccccc3)C(=O)CC2)c1` the Potency was inconclusive: 1.65 µM [inhibitor, full curve].
In the case of `Cc1ccc(S(=O)(=O)N2CCC(=O)N(C(COCc3ccc(Cl)cc3)C(C)C)CC2)cc1` (stereo not given), the Potency is reported as inconclusive: 10.4 µM [inhibitor, partial curve, poor fit].
With `Cc1ccc(-c2cc(C(=O)N3CCN(c4ccccc4O)CC3)c3ccccc3n2)cc1` the Potency was inconclusive: 6.57 µM [inhibitor, partial curve, poor fit].
In the case of `Cc1cccc(OCCCC(=O)Nc2ccc(S(=O)(=O)Nc3ncccn3)cc2)c1C`, the Potency is reported as active: 2.08 µM.
In the case of `CCN(CC)CCN(C(=O)c1ccc(S(=O)(=O)N2CCCC2)cc1)c1nc2cc(C)cc(C)c2s1`, the Potency is reported as inconclusive: 11.7 µM [inhibitor, partial curve, poor fit].
With `Cc1ccc(OC(=O)CCS(=O)(=O)c2ccc(C)cc2)cc1` the Potency was inconclusive: 20.8 µM [inhibitor, partial curve, poor fit].
For `O=C(c1ccc(COc2ccc3ccccc3c2)o1)N1N=C(C(F)F)CC1(O)C(F)F` (stereo not given), the activity change, negative = inhibition was inactive: -9.66% [at 5.75 µM].
With `N#Cc1ccccc1S(=O)(=O)N1CCN(C(=O)CCc2ccccc2)CC1` the Potency was inconclusive: 4.15 µM [inhibitor, partial curve, poor fit].
With `O=c1cnn(Cc2c(Cl)cccc2Cl)c2ccccc12` the Potency was active: 9.28 µM.
With `O=C(Nc1ccc(N2C(=O)C3C4C=CC(C4)C3C2=O)cc1)Nc1nncs1` (stereo not given) the Potency was inconclusive: 18.5 µM [inhibitor, single point].
In the case of `O=C(Cc1ccc(Br)cc1)N(Cc1ccccc1)c1ccccn1`, the Potency is reported as “inactive”.
For `O=C(CNC(=S)N(CCCN1CCOCC1)Cc1cccs1)N1CCCCCC1`, the Potency was inconclusive: 3.29 µM [inhibitor, partial curve, poor fit].
With `O=C(CSc1nc2ccccc2c(=O)[nH]1)N1CCN(S(=O)(=O)c2ccccc2)CC1` the Potency was inconclusive: 10.4 µM [inhibitor, partial curve, poor fit].
In the case of `OCC1CCN(Cc2cn(Cc3ccccc3)nc2-c2cc3ccccc3o2)CC1`, the Potency is reported as inconclusive: 16.5 µM [inhibitor, single point].
For `CC(=O)Nc1c(C(=O)O)oc2ccc(Cl)cc12`, the Potency was active: 2.62 µM.
In the case of `O=C(CC(=O)NCc1cccnc1)NCc1cccnc1`, the Potency is reported as active: 10.4 µM.
With `Cc1ccc(-c2c(C(=O)N/N=C/c3cccc(Cl)c3)nnn2-c2nonc2N)cc1` the Potency was inconclusive: 0.0329 µM [inhibitor, full curve, poor fit].
With `CCC1(c2ccccc2)NC(=O)N(CC(=O)NCc2ccccc2OC)C1=O` (stereo not given) the Potency was “inactive”.
In the case of `CCCNC(=O)C(Cc1cccc(Br)c1)NC(=O)c1ccc(C#N)cc1` (stereo not given), the Potency is reported as inconclusive: 18.5 µM [inhibitor, single point].
With `CC(C)c1ccc(NC(=O)C2CSC3(C)CCC(=O)N23)cc1` (stereo not given) the Potency was “inactive”.
For `Cc1cc2n(n1)C(c1ccc3c(c1)OCO3)Nc1ccccc1-2` (stereo not given), the Potency was “inactive”.
For `CCOc1ccc(NC(=O)CN(C)C(=O)CSCc2c(C)noc2C)cc1OCC`, the Potency was “inactive”.
For `CCOc1ccc(S(=O)(=O)N2CCOCC2)cc1NC(=O)CSCc1ccc(C)cc1`, the Potency was inconclusive: 5.22 µM [inhibitor, partial curve, poor fit].
With `Cc1ccc(-n2ncc3c(NCc4ccco4)ncnc32)c(C)c1` the Potency was inconclusive: 9.28 µM [inhibitor, partial curve, poor fit].
In the case of `NNC(=O)c1sc2cc(C(F)(F)F)cnc2c1-c1cccs1`, the Potency is reported as inconclusive: 32.9 µM [inhibitor, single point].
In the case of `O=C(CCCc1nc(-c2ccccc2Cl)no1)N1CCOCC1`, the Potency is reported as inconclusive: 11.7 µM [inhibitor, partial curve].
In the case of `Cc1ccc(N2CC(NS(=O)(=O)c3cccnc3)CC2=O)cc1C` (stereo not given), the Potency is reported as inconclusive: 18.5 µM [inhibitor, single point].
In the case of `Cc1ccc(C)c(OCCC(=O)OCC(=O)Nc2cccc(S(=O)(=O)N3CCCC3)c2)c1`, the Potency is reported as “inactive”.
For `Cc1cc(C)c(OCC(=O)N/N=C/c2ccc3c(c2)OCO3)c(C)c1`, the Potency was active: 11.7 µM.
In the case of `CCc1ccc(/C=C2/C(=O)N(C)C(=S)N2CC(=O)OC)s1`, the Potency is reported as “inactive”.
In the case of `Cc1ccc(OCc2cc(C(=O)N3CCN(c4ccccc4)CC3)no2)cc1C`, the Potency is reported as “inactive”.
With `Cc1ccc(Nc2nc(N)c([N+](=O)[O-])c(NCc3ccco3)n2)cc1` the Potency was active: 11.7 µM.
With `Cc1ccc(N2CN(CCc3ccccc3)CNC2=S)cc1` the Potency was inconclusive: 13.1 µM [inhibitor, single point].
For `O=C(CCc1ccccc1)Nc1cccc(NC(=O)CCc2ccccc2)c1`, the Potency was inconclusive: 1.47 µM [inhibitor, full curve, poor fit].
With `CCCOc1c(OC)cccc1C1CC(=O)Nc2cc3c(cc21)OCCO3` (stereo not given) the Potency was “inactive”.
With `O=C(Oc1ccc(C(=S)N2CCC(O)CC2)cc1)c1ccc(Cl)cc1` the Potency was “inactive”.
In the case of `Cc1ccc2nc(-c3cccnc3)c(NC3CCCCC3)n2c1`, the Potency is reported as “inactive”.
In the case of `CC1CCc2c(sc(NC(=S)NC(=O)c3ccccc3)c2C#N)C1` (stereo not given), the Potency is reported as “inactive”.
In the case of `O=C(Nc1ccc(C(=O)NCCCN2CCCCC2)cc1)C1=CSCCO1`, the Potency is reported as inconclusive: 7.38 µM [inhibitor, partial curve].
For `O=C(NCCC1=CCCCC1)C(c1ccccc1)c1ccccc1`, the Potency was inconclusive: 0.738 µM [inhibitor, partial curve].
With `CCN(C(C)=O)c1nnc(CSc2nc3ccccc3s2)s1` the Potency was “inactive”.
With `CCc1c(C)nc2c(C#N)c[nH]n2c1=O` the Potency was active: 0.522 µM.
For `CN1CCN(c2ccc(S(=O)(=O)N3CCOCC3)cc2)CC1`, the Potency was inconclusive: 18.5 µM [inhibitor, single point].
In the case of `CCCCc1nnc(NC(=O)C2CC(=O)N(c3ccc(C)cc3)C2)s1` (stereo not given), the Potency is reported as inconclusive: 0.329 µM [inhibitor, full curve, poor fit].
For `COc1ccccc1N(CC(=O)N1CCOCC1)S(C)(=O)=O`, the Potency was inconclusive: 10.4 µM [inhibitor, single point].
With `Nc1nnc(-c2cccc(Cl)c2Cl)c(N)n1` the Potency was inconclusive: 3.01 µM [inhibitor, partial curve, poor fit].
With `O=C(O)c1ccc(NC(=O)c2cccc(NC(=O)c3cccs3)c2)cc1` the Potency was “inactive”.
For `COc1ccccc1/C=C/C=N/n1c(-c2n[nH]c3c2CCC3)n[nH]c1=S`, the Potency was inconclusive: 18.5 µM [inhibitor, single point].
With `O=c1oc(Nc2ccc(F)cc2)nc2ccccc12` the Potency was inconclusive: 0.37 µM [inhibitor, full curve, poor fit].
With `CCCCCOc1ccc(/C=c2\sc3ncnn3c2=O)cc1` the Potency was “inactive”.
With `CC(Oc1ccc(Cl)cc1)C(=O)Nc1cccc(S(=O)(=O)N2CCOCC2)c1` (stereo not given) the Potency was active: 10.4 µM.
In the case of `Cc1ccc(C)c(N2CCN(C(=O)Cn3ncn4cccc4c3=O)CC2)c1`, the Potency is reported as “inactive”.
For `O=C(NN=C1CCCCCC1)c1cccs1`, the Potency was inconclusive: 9.28 µM [inhibitor, single point].
In the case of `Cc1nc2ccc(NC(=O)c3nn(C(C)C)c(=O)c4ccccc34)cc2s1`, the Potency is reported as inconclusive: 16.5 µM [inhibitor, single point].
With `CC(=O)c1c(C)[nH]c(C(=O)N(C)C(c2ccccc2)c2ccccc2)c1C` the Potency was inconclusive: 11.7 µM [inhibitor, partial curve, poor fit].
For `Cc1ccc(-c2ccccc2)n1-c1cccc(C(=O)O)c1`, the Potency was “inactive”.
In the case of `Cc1ccc(C(=O)Nc2ccc(Nc3ccccc3)cc2)c(Cl)c1`, the Potency is reported as inconclusive: 18.5 µM [inhibitor, single point].
For `COc1cccc(CNC(=O)CCC2CCCN(c3cc(C)nc(N(C)C)n3)C2)c1` (stereo not given), the Potency was inconclusive: 18.5 µM [inhibitor, single point].
For `CC(C)c1ccc(OCC(=O)NC(=S)Nc2ccc3c4c(cccc24)CC3)cc1`, the Potency was inconclusive: 18.5 µM [inhibitor, single point].
In the case of `CC1(C)CC(=O)C2=C(C1)OC(/N=C/N1CCCC1)=C(C#N)C2c1ccccc1` (stereo not given), the Potency is reported as inconclusive: 10.4 µM [inhibitor, partial curve].
With `CCCCNC(=O)CN1C(=O)c2cccc(N)c2C1=O` the Potency was “inactive”.
For `O=[N+]([O-])c1ccc(NCCCNS(=O)(=O)c2ccccc2)c(Cl)c1`, the Potency was “inactive”.
With `N#C/C(=C\c1c[nH]c2ccccc12)C(=O)Nc1ncc(Cc2ccc(Cl)cc2Cl)s1` the Potency was inconclusive: 18.5 µM [inhibitor, single point].
